These results are taken from patent US20240140991A1 (THE QUEEN'S UNIVERSITY OF BELFAST, priority 2021, published 2024).

The data set in a line: general procedure: Fmoc solid-phase peptide synthesis; Rink amide MBHA resin (0.67 mmol g-1); 2-chlorotrityl or Wang resin for C-terminal acids; DIC/Oxyma (automated); BOP/DiPEA (manual). The following applies: whole synthesis, scale of the general procedure 0.25 mmol.

Take FA-sawoOGoWTINGG-CONH2: the isolated yield is on record as 31%.

For FA-sywoOGoWAINGG-CONH2, the isolated yield was 43%.

Take FA-sywoOGoWTIN-CONH2: the isolated yield is recorded as 24%.

In the case of FA-aywoOGoWTINGG-CONH2, the isolated yield is reported as 34%.

With FA-sywoOAoWTINGG-CONH2, the isolated yield came to 11%.

Take FA-sywoOGoWTINGA-CONH2: the isolated yield came to 32%.

Consider FA-sywoOGoWTING-CONH2, for which the isolated yield turned out to be 29%.

Substance FA-sywoOGoWTINAG-CONH2 had an isolated yield of 29%.

With FA-sywoOGoWTANGG-CONH2, the isolated yield was 34%.

As for FA-sywoOGoATINGG-CONH2, the isolated yield was determined as 31%.

FA-sywoAGoWTINGG-CONH2 showed an isolated yield of 30%.

Substance FA-syaoOGoWTINGG-CONH2 displayed an isolated yield of 37%.

Substance FA-sywoOGaWTINGG-CONH2 showed an isolated yield of 28%.

FA-sywaOGoWTINGG-CONH2 showed an isolated yield of 27%.

In turn, FA-sywoOGoWTIAGG-CONH2 returned an isolated yield of 6%.
